Assay results reported in the supplement of paper PMC10849652.
The other results are listed elsewhere or left out.

Amino acid sequences for entries named in this document (tags omitted). A change or cut given only in a name is not applied to a line headed by its entry.
UniProt Q9BSV6: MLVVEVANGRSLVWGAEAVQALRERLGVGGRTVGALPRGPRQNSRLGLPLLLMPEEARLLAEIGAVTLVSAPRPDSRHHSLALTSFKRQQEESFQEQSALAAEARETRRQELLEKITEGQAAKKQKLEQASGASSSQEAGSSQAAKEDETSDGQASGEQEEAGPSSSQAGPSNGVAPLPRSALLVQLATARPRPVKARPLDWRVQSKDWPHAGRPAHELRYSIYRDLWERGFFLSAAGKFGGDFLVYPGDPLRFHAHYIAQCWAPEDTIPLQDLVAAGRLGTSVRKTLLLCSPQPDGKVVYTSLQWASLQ
UniProt Q13049: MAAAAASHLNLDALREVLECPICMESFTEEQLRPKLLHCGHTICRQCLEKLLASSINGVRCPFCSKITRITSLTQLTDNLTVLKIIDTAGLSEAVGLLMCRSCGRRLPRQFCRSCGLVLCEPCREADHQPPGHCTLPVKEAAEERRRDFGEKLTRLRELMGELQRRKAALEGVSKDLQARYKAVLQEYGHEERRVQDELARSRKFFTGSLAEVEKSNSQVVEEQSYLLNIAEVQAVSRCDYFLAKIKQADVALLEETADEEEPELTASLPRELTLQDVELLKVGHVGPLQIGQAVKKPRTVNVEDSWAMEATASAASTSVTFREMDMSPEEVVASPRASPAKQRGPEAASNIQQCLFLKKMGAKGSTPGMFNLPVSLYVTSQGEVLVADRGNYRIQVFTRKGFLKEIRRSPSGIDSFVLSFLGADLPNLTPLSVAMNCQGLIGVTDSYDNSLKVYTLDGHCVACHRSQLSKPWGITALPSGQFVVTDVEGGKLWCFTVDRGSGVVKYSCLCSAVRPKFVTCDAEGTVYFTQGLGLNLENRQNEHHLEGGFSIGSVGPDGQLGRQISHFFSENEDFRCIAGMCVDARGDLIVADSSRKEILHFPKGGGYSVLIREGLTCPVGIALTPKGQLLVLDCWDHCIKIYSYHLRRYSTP
UniProt P22105: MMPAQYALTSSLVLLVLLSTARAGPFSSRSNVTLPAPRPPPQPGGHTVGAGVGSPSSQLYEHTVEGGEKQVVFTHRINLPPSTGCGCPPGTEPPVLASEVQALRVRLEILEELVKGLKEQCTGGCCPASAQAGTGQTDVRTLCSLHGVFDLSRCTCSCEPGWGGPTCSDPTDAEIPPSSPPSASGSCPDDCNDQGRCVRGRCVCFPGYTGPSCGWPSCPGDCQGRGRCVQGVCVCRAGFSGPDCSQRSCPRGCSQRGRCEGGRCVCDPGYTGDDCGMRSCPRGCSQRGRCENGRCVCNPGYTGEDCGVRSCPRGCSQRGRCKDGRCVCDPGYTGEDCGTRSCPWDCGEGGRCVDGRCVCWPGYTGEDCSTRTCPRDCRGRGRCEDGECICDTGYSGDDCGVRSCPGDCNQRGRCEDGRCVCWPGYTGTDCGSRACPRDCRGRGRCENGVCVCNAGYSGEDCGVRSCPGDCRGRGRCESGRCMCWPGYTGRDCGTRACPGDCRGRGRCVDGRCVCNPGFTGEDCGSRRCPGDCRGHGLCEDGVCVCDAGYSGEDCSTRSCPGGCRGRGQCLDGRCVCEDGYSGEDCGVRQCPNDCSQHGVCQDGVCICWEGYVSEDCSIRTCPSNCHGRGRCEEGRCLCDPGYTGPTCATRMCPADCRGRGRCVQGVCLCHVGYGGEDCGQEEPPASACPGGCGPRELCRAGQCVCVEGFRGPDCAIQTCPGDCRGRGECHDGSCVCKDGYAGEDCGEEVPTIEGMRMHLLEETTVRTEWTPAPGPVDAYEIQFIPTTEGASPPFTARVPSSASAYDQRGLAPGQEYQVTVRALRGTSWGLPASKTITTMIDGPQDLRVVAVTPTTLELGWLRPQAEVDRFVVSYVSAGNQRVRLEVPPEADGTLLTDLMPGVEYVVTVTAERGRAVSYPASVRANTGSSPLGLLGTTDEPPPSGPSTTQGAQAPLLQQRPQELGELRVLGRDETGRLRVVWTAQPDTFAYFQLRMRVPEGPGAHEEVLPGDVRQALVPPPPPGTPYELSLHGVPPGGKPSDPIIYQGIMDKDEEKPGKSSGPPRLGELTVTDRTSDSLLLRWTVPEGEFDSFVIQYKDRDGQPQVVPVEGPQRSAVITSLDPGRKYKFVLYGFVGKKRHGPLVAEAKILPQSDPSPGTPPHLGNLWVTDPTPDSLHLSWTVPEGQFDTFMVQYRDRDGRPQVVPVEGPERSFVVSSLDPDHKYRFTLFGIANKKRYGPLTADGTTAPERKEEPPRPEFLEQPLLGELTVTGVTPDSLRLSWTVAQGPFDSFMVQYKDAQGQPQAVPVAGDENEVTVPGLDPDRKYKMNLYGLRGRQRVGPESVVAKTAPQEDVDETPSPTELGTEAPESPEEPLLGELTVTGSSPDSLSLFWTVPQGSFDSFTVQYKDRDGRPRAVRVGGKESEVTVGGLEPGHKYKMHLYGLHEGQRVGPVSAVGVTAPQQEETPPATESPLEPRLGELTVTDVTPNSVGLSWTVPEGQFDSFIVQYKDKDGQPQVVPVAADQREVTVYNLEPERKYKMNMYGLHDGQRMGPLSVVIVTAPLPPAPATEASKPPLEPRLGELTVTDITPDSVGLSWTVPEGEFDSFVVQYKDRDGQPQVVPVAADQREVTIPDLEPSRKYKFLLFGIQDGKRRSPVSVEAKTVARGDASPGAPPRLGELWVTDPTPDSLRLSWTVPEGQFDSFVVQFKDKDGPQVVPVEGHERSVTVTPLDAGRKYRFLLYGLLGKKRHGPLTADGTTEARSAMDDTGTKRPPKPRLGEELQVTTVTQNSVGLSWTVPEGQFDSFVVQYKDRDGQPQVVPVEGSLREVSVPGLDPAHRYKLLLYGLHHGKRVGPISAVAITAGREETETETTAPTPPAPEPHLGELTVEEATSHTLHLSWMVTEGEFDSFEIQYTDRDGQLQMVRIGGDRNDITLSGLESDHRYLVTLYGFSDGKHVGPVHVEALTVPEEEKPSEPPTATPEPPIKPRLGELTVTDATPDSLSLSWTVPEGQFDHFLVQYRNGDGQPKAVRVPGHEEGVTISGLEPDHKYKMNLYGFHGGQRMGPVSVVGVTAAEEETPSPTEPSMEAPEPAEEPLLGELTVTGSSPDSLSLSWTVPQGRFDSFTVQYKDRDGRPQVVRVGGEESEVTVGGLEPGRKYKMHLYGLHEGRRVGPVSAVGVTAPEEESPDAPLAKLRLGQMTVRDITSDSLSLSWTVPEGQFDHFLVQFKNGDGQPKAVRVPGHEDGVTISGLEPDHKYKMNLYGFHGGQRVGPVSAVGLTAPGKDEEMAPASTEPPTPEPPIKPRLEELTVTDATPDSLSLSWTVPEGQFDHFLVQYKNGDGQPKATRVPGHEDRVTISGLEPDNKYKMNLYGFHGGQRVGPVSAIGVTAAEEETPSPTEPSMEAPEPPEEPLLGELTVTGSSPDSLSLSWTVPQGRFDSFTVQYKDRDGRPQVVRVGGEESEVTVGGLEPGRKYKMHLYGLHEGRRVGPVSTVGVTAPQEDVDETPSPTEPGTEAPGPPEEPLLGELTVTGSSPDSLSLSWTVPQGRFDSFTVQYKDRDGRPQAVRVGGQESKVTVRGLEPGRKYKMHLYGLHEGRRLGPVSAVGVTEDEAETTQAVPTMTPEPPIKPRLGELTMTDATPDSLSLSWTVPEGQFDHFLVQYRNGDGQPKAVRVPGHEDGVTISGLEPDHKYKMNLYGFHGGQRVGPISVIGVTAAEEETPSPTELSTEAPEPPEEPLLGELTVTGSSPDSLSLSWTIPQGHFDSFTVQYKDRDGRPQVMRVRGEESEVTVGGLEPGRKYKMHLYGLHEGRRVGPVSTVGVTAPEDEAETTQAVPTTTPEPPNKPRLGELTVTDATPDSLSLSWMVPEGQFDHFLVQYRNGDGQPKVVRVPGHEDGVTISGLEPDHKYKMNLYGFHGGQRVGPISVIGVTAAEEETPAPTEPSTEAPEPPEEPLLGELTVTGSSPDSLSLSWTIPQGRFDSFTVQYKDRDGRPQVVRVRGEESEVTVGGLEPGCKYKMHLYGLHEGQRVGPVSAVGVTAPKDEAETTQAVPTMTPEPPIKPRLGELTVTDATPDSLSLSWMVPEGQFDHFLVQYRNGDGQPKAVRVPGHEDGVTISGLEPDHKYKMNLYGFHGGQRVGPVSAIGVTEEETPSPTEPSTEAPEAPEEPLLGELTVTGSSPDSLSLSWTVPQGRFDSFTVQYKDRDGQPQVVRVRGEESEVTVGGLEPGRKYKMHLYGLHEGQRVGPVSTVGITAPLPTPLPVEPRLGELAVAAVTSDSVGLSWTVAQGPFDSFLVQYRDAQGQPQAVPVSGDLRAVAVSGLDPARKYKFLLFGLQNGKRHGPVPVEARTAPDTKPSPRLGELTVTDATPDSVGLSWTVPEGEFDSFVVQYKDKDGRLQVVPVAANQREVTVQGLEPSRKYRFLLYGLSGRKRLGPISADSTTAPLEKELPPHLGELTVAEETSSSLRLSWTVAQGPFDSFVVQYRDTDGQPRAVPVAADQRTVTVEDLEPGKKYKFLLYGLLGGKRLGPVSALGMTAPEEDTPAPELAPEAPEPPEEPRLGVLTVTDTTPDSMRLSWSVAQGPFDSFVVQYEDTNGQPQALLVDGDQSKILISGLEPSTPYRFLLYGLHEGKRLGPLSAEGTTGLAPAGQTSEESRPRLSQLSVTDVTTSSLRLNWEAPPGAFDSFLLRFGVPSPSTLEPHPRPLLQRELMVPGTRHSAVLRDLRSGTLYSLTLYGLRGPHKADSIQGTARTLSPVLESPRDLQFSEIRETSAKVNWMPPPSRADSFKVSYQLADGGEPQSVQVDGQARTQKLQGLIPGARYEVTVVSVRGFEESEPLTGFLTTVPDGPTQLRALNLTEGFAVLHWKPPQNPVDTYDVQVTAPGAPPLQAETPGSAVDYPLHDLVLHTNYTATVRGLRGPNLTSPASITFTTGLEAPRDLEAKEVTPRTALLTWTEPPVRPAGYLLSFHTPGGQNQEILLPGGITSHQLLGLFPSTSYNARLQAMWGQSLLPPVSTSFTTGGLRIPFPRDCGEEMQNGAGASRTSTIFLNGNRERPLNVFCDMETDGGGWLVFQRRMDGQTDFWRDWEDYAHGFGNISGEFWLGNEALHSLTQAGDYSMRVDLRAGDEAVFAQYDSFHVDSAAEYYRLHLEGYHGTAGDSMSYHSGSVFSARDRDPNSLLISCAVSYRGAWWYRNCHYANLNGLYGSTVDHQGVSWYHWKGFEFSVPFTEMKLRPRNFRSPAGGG
UniProt P60174, whole entry, looked up: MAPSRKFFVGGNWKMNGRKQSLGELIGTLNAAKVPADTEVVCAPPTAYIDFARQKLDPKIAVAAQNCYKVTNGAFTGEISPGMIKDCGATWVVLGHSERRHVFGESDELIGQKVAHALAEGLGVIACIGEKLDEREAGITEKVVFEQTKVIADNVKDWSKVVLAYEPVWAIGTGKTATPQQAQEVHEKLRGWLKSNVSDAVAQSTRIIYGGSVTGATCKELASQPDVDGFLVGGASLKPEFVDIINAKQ
UniProt Q9P0U1: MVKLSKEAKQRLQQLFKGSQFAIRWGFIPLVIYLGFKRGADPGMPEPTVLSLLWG
UniProt Q9Y4K3: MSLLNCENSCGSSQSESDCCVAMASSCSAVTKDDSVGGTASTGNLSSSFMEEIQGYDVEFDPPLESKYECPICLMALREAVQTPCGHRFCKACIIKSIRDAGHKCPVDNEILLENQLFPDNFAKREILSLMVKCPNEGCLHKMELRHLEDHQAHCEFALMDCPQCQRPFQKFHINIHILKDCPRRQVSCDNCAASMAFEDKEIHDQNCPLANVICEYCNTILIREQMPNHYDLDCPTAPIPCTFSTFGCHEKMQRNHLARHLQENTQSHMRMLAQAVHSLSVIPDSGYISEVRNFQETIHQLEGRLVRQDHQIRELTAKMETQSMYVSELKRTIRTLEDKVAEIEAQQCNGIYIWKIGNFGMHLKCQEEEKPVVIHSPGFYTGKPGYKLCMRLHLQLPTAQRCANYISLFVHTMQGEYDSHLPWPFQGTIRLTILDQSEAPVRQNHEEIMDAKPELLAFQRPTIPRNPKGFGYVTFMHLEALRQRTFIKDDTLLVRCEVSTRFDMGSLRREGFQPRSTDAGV
UniProt Q96GJ1: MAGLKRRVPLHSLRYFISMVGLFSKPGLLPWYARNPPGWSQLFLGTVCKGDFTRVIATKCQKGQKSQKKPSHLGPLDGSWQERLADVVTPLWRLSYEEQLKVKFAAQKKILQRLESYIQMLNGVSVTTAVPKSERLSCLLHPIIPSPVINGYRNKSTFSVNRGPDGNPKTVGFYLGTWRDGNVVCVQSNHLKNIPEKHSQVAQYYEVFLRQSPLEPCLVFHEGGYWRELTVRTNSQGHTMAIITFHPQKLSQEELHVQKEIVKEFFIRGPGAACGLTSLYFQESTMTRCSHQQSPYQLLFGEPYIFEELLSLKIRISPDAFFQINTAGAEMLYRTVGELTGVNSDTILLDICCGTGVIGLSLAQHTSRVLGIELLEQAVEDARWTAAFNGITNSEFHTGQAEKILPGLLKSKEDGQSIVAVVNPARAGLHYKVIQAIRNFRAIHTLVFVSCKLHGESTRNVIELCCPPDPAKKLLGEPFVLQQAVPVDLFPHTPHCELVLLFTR

The targets below were run with c1cn2cc(-c3ccc4cn[nH]c4c3)nc(Nc3ccc(N4CCOCC4)cc3)c2n1 [entospletinib] (assay: log2 fold change, soluble protein after heating vs DMSO (PISA); higher = thermal stabilisation; K562 cells, 10 uM, 30 min; active = over 0.2 and 3.5 SD of the protein, either way, in both replicates (recomputed)).
Summary of the method: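 Soluble protein was quantified by TMTpro 16plex LC-MS/MS after channel sums were equalised. It was obtained as the supernatant after 21,000xg for 90 min from pooled aliquots of K562 cells (2×10^6 cells/mL, 10 μM compound, 30 min) heated for 3 min across 48°C-58°C and extracted in PBS with 0.5% NP-40 at 4°C. Thermal stability values are relative to control samples and come from duplicates. They are given as log2 fold changes.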

log2 fold change, inactive:
TNIK isoform 6 (UniProt Q9UKE5) -0.013
TSEN34 (UniProt Q9BSV6) -0.018
TSC22D1 (UniProt Q15714) -0.019
TRIO (UniProt O75962) 0.169
TRAPPC4 (UniProt Q9Y296) 0.012
TRAP1 (UniProt Q12931) 0.004
TPD52L1 (UniProt Q16890) -0.019
TPD52L2 isoform 7 (UniProt O43399) -0.005
TRIP4 (UniProt Q15650) -0.024
TRIM32 (UniProt Q13049) -0.027
TNIK isoform 3 (UniProt Q9UKE5) -0.018
TPM4, A0A2R8Y5V9 0.01
TRMT61B (UniProt Q9BVS5) 0.028
TRAPPC6A isoform 2 (UniProt O75865) 0.06
TRMT11 (UniProt Q7Z4G4) 0.008
TNXB isoform 4 (UniProt P22105) 0.075
TPT1 (UniProt P13693) 0.069
TPST2 (UniProt O60704) -0.094
TRAPPC10 (UniProt P48553) 0.077
TOR3A (UniProt Q9H497) 0.001
TRIT1 (UniProt Q9H3H1) 0.237
TRIAP1 (UniProt O43715) 0.08
TPI1 (UniProt P60174) 0.014
TRIM11 (UniProt Q96F44) 0.011
TOMM7 (UniProt Q9P0U1) 0.022
TNIP1 (UniProt Q15025) -0.072
TRAPPC12 (UniProt Q8WVT3) 0.058
TNFRSF1B (UniProt P20333) -0.012
TOMM34 (UniProt Q15785) 0.02
TRAF6 (UniProt Q9Y4K3) 0.055
TRMT5 (UniProt Q32P41) -0.113
TRMT2B (UniProt Q96GJ1) 0.123
TSC22D2 (UniProt O75157) 0.079

Quoted from the entries so far for reference:
log2 fold change, inactive:
TRMT11 (UniProt Q7Z4G4) 0.008
TNXB isoform 4 (UniProt P22105) 0.075
